Laboratory results as given in PubChem BioAssay AID1508600 (Functional Genomics Laboratory (NCATS/FGL), 2020).
Hit rate of the full screen: of about 53,000 sequences, about 3,700 (7%) were called active.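 How the source made its calls: active means gene knockdowns whose robust z-score for IL-1 alpha signal is at least 2 or at most -2, so actives lie on both sides; inactive means the rest.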 This is one part of the list.

Experiment: Components of the Cytosolic LPS Sensing Pathway: Gene Identification via Genome-wide siRNA Screen;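 further: robust z of the log signal after scaling to non-targeting control siRNA wells of the plate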
Conditions: RAW264.7 macrophages, IL-1a HTRF, actives lie on both sides, screened at 100 nM (by protocol), cells primed 5 h with Pam3CSK4 first
Procedure, shortened: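 Knockdown: 100 nM siRNA, 48h, RAW264.7. Stimulation: Pam3CSK4 5 h, then LipidA via TransIT-TKO 24 h. Output: supernatant IL-1a HTRF, negative-control-normalized, log robust z-score; viability by CellTiter-Glo.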

| Sequence | z-score |
| --- | --- |
| GGAUUUACUGUGGUAUGGGTT against Slc16a13 | inactive: -1.77 |
| GGAAACCUGUUUGAUUUUGTT against Aasdhppt | inactive: 0.798 |
| GGACCAUUUUCUAACAGACTT against Slc12a9 | inactive: 0.0659 |
| CCGAUCUUUCCCUUAUCUUTT against Vamp2 | inactive: 0.127 |
| GGUAAUGCCCUAUACUUCATT against Sgcd | inactive: 0.684 |
| GCUUCAGGAAGAGUUGCAGTT against Asb7 | inactive: -0.997 |
| GGGUAAUUAUUGUUUUCUGTT against Eif4e3 | active: 2.19 |
| GCACAAAUGGCACUAUUGATT against R3hcc1l | inactive: -0.532 |
| GCCGGGUUCGAGAGUUAAGTT against Ptpn11 | inactive: 1.06 |
| GGGCUUUAUAAGACAGUCUTT against Zfp786 | inactive: -0.11 |
| GGAAAACUACUGGAACUGGTT against Irgm1 | inactive: 0.415 |
| CGAUUGCUUUUCGAGACUGTT against Olfr1404 | inactive: -1.73 |
| GGAUCAGCAUGUUUGGAUUTT against Olfr653 | inactive: 0.314 |
| CAUAGAGUGCCUGAUUUUATT against Olfr237 | inactive: -0.497 |
| CCUAUGAUUCCAAAAAGGUTT against Eogt | inactive: -1.19 |
| GGGAGUGUUAAAGAGAGUGTT against Ncmap | inactive: 0.0787 |
| GGAGUUUGUCUUCUCUUUCTT against Foxf1 | inactive: 0.0377 |
| GGAGGAGACUCAGCAGAUUTT against Gzmn | active: 2.29 |
| GGGAGAUGAACCUCUCAGATT against Pbld1 | inactive: 0.124 |
| CCAGGUUCUAUCUACCUACTT against Igfn1 | inactive: -1.81 |
| GGAGGGAAAUGUUUUAUGUTT against N4bp1 | inactive: 0.968 |
| GGAGAAUUAGCCAACACAGTT against Ywhah | inactive: -1 |
| GGGUUACUUAUUAUAUCGATT against Mycbp2 | inactive: 0.888 |

| Sequence | z-score |
| --- | --- |
| GGAUUUCAAGCAAGAUUACTT against Mfn1 | inactive: -0.191 |
| GGAGGAACCUCAGAAACAGTT against Knstrn | active: -2.19 |
| GCCACACAGAUACCAGAUATT against Mettl27 | inactive: 1.59 |
| GGAUGGAUCUUCUUGAUUATT against Tyw3 | inactive: -0.0584 |
| GGAACUCCUCAAACGAAGGTT against Bmp3 | inactive: 0.553 |
| GGCUCUUUCACACCUGGUATT against Scgb3a2 | inactive: 0.545 |
| GGCAAACAUGAAUCUUACCTT against Cyth4 | inactive: -0.375 |
| GCUCAGAGCAUGUUGGUGGTT against Dstyk | inactive: -0.805 |
| GGUAAAGAUAAUUGACAACTT against Prss29 | inactive: -1.11 |
| GCUAAAAGGUAAGUACUUCTT against Lncpint | inactive: 0.981 |
| GGAACUCGAGUUUAUCCAUTT against 1700020N01Rik | inactive: 0.813 |
| GGCCAUCUCUUUUAUUGUATT against Alg13 | inactive: -0.547 |
| GCUGUCCCGAGCUGAACAATT against Nell2 | inactive: 0.286 |
| GGGAUACAAUGUAACAUACTT against L1cam | inactive: -0.0915 |
| GCAUUCGAAGCUCUUCUAATT against 4930474M22Rik | inactive: -1.89 |
| GGGAGGAUACCUUCUAUGUTT against Atf6b | inactive: -0.43 |
| GCACUUUAAAAGAAUCACUTT against Slc2a12 | active: 2.11 |
| GGACAAACAAGUGAAAUACTT against Morf4l1 | inactive: 0.209 |
| GCUGUGUUCUAACUAACUATT against Aldh9a1 | inactive: 0.039 |
| GAACUACCUGUGUAAACCUTT against Unc119b | inactive: 0.356 |
| CCUGAGAUUGGCAAUAUAGTT against Mettl14 | inactive: 0.683 |
| GGGAAUGCUCCAAACGACATT against Bsg | inactive: 1.04 |
| GGAUACCUAUAGAAAAUGUTT against Creld2 | inactive: -1.29 |

| Sequence | z-score |
| --- | --- |
| GAUUUAGCUUGGUGAACCGTT against Thoc6 | inactive: 0.754 |
| GGCACUAGGUGGAGUCAUUTT against Slco1b2 | inactive: -0.0321 |
| CCUGGCAGUAGGUUUGUAATT against Plcd3 | inactive: 0.235 |
| GGUUAAAGGAGCAGUCUAUTT against Dbn1 | inactive: 0.636 |
| CCGAGUAAGAAGGACGAUATT against Sh3tc1 | inactive: -0.984 |
| GGGAGAAUUACCAAGAUCUTT against Elac1 | inactive: -0.0948 |
| GGCCAUAUUUGUGACUGUGTT against Hao1 | inactive: -1.58 |
| GGUUCUUGUGUUCAGAUGGTT against Mcmdc2 | inactive: -0.834 |
| CCAGAUAAGCCUCAUCAAUTT against Scn5a | inactive: -0.163 |
| GGAUCUCGAGUCUCAUCUCTT against Ccdc166 | inactive: 0.851 |
| CCCAAAUUGAAAGGGCAGGTT against Serpina3h | inactive: -0.822 |
| GGAACAUAUGCUCAGAAGATT against Lce1e | inactive: -1.68 |
| GGAAGAAUUCUCAAAGAAUTT against Scyl3 | inactive: -0.343 |
| GACAUACAAUCUCCUACAUTT against Olfr478 | inactive: 0.818 |
| GGCAAUGUACAGAUACUUGTT against Pramel39 | inactive: 0.798 |
| GGGAUAUGUGAUUAUUUACTT against Ankle2 | inactive: -0.564 |
| GGAACUGUGAGACUUUUAGTT against Rabgap1 | inactive: 0.532 |
| CCACUCCUGUUGAUAAAAATT against Pex7 | inactive: -1.48 |
| GCCUAAGGAUGAGUUUCAATT against Uqcr10 | inactive: 1.01 |
| GGUUGUUCCUACAUGUCUUTT against Irf3 | inactive: -1.28 |
| CCUUCAGCUAUCUAACUUCTT against Nepn | inactive: -0.0375 |
| GGACAUGGAUGACACUGAUTT against Tsr3 | inactive: -1.99 |

Exported tab-delimited: part of the list above
Sequence	z-score
GGUAAAGAUAAUUGACAACTT against Prss29	inactive: -1.11
GCUAAAAGGUAAGUACUUCTT against Lncpint	inactive: 0.981
GGAACUCGAGUUUAUCCAUTT against 1700020N01Rik	inactive: 0.813
GGCCAUCUCUUUUAUUGUATT against Alg13	inactive: -0.547
GCUGUCCCGAGCUGAACAATT against Nell2	inactive: 0.286
GGGAUACAAUGUAACAUACTT against L1cam	inactive: -0.0915
GCAUUCGAAGCUCUUCUAATT against 4930474M22Rik	inactive: -1.89
GGGAGGAUACCUUCUAUGUTT against Atf6b	inactive: -0.43
GCACUUUAAAAGAAUCACUTT against Slc2a12	active: 2.11
GGACAAACAAGUGAAAUACTT against Morf4l1	inactive: 0.209
GCUGUGUUCUAACUAACUATT against Aldh9a1	inactive: 0.039
GAACUACCUGUGUAAACCUTT against Unc119b	inactive: 0.356
CCUGAGAUUGGCAAUAUAGTT against Mettl14	inactive: 0.683
